Assay results published in article doi:10.1101/2021.07.08.451585.

Sequences of proteins named here, by UniProt entry; tags and fusion partners are left off. Residues count along the entry.
UniProt P38646, residues 47-679: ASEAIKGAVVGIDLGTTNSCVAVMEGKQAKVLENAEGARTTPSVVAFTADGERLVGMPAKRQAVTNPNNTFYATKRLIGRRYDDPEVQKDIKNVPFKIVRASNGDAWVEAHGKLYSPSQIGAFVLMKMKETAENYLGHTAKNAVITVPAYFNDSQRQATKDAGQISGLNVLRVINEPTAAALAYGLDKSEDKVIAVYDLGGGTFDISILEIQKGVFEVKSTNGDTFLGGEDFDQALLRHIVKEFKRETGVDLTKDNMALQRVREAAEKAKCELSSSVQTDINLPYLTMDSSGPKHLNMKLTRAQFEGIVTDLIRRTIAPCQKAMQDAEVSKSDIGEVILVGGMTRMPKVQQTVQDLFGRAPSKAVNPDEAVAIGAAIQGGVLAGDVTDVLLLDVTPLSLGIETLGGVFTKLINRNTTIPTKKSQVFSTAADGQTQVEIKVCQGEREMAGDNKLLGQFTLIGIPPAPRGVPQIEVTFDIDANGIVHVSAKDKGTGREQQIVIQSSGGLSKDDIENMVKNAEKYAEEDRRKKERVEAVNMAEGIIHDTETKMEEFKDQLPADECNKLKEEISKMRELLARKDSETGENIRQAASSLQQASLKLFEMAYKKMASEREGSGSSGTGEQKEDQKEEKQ
UniProt P25705, residues 44-553: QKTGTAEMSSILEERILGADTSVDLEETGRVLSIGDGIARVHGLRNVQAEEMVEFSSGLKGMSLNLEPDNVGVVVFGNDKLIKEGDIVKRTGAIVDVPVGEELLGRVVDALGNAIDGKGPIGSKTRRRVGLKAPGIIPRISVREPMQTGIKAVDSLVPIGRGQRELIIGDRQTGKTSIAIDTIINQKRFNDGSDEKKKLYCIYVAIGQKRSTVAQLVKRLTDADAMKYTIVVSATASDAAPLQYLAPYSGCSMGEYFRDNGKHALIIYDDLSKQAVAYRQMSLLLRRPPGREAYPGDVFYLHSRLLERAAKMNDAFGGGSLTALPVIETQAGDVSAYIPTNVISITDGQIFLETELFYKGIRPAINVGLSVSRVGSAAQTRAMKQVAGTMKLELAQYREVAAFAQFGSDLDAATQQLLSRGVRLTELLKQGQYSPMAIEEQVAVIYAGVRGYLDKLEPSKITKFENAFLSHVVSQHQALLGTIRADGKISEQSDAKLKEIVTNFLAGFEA

Legend:
[1] = biological target: T1, BioID2-tagged wildtype human CLUH (BioID2-3xHA-CLUH) (human) (UniProt O75153); experiment: proximity labelling
T1 sequence: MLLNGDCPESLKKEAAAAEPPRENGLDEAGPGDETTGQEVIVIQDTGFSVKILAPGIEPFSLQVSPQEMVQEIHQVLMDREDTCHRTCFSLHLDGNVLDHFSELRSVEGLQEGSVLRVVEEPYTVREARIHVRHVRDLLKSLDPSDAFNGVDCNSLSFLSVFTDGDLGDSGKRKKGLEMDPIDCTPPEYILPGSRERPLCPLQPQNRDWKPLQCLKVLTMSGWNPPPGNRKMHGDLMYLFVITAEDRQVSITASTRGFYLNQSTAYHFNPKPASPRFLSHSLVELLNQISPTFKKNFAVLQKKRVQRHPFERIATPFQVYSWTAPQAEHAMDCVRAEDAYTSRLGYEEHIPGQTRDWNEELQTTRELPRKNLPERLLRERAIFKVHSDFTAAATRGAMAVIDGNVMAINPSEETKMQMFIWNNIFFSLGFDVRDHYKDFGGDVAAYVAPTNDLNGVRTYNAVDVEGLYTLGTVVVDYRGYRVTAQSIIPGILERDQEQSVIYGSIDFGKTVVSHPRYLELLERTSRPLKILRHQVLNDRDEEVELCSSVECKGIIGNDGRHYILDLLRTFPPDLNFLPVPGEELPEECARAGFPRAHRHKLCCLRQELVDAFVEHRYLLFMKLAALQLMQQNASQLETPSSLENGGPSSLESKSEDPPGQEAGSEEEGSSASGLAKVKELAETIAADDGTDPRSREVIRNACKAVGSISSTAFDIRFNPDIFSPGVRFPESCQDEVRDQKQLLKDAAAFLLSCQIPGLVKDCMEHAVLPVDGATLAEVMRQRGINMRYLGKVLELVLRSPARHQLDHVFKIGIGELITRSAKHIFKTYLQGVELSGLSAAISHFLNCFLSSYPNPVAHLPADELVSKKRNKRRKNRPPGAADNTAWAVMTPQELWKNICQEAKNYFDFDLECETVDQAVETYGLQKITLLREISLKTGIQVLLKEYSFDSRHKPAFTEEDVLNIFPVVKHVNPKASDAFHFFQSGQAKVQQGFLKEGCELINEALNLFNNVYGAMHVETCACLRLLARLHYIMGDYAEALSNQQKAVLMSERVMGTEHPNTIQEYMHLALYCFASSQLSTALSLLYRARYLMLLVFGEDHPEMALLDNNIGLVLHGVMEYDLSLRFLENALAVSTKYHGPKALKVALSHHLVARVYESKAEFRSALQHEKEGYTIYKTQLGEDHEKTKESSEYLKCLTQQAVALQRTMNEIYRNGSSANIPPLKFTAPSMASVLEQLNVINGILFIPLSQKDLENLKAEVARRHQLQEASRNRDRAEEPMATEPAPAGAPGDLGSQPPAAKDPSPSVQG

[2] = biological target: T2, CLUH lacking TPR domain (BioID2-3xHA-CLUHΔTPR) (human) (UniProt O75153); experiment: proximity labelling
T2 sequence: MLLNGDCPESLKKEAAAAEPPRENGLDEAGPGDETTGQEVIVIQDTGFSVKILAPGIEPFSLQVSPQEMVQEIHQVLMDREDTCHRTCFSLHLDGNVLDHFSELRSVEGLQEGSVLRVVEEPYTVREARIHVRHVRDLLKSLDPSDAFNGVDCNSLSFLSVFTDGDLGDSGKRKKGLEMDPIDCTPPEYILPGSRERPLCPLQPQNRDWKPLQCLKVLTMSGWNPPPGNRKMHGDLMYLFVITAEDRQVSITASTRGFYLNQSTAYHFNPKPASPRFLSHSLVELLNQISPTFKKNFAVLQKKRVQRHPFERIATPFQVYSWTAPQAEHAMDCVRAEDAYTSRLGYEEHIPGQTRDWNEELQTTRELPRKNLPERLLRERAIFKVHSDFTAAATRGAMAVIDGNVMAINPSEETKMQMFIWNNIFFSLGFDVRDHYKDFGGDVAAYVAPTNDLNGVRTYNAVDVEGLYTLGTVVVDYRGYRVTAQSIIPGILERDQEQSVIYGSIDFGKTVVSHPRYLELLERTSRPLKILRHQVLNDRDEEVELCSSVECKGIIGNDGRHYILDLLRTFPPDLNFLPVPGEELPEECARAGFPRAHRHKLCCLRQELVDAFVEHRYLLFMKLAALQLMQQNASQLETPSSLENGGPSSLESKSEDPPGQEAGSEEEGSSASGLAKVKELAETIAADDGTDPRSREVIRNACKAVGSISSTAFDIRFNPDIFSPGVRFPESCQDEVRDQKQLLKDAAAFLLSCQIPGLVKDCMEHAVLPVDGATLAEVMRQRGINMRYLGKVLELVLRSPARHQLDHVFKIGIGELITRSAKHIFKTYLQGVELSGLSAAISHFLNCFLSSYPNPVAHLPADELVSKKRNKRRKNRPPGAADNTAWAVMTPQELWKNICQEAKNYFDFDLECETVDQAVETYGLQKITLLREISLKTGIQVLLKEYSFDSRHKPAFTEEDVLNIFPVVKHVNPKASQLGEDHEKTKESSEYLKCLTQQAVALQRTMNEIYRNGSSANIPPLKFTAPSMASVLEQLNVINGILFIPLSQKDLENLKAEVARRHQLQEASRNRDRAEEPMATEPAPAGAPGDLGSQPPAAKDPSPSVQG

binding [1] | binding [2] | Substance
binds | no binding | HSPA9, endogenous in HCT116 cells (from UniProt P38646 47-679)
binds | no binding | ATP5A, endogenous in HCT116 cells (from UniProt P25705 44-553)

No constants are given. Whether binding was seen depends on the method and setting. Binding seen in cells or lysates may run through a third protein. Here binding means that the protein was enriched with, or labelled near, the bait; the list need not be complete. For some of these results: A no says only that the protein was not detected with the bait. For some of these results: Where a sequence is shown, tags or fusion partners need not be part of it.
